Results as given in patent US9284543B2, “Neutral active soluble truncated PH20 polypeptides and uses thereof” (Halozyme, Inc., priority 2008, dated 2016).

B1: SPAM1-DAVD: C-terminally truncated human PH20, precursor 456 aa (SEQ ID NO:40), mature 421 aa (SEQ ID NO:92) (protein, listed as Homo sapiens)
chain 1: MGVLKFKHIFFRSFVKSSGVSQIVFTFLLIPCCLTLNFRAPPVIPNVPFLWAWNAPSEFCLGKFDEPLDMSLFSFIGSPRINATGQGVTIFYVDRLGYYPYIDSITGVTVNGGIPQKISLQDHLDKAKKDITFYMPVDNLGMAVIDWEEWRPTWARNWKPKDVYKNRSIELVQQQNVQLSLTEATEKAKQEFEKAGKDFLVETIKLGKLLRPNHLWGYYLFPDCYNHHYKKPGYNGSCFNVEIKRNDDLSWLWNESTALYPSIYLNTQQSPVAATLYVRNRVREAIRVSKIPDAKSPLPVFAYTRIVFTDQVLKFLSQDELVYTFGETVALGASGIVIWGTLSIMRSMKSCLLLDNYMETILNPYIINVTLAAKMCSQVLCQEQGVCIRKNWNSSDYLHLNPDNFAIQLEKGGKFTVRGKPTLEDLEQFSEKFYCSCYSTLSCKEKADVKDTDAVD
chain 2: LNFRAPPVIPNVPFLWAWNAPSEFCLGKFDEPLDMSLFSFIGSPRINATGQGVTIFYVDRLGYYPYIDSITGVTVNGGIPQKISLQDHLDKAKKDITFYMPVDNLGMAVIDWEEWRPTWARNWKPKDVYKNRSIELVQQQNVQLSLTEATEKAKQEFEKAGKDFLVETIKLGKLLRPNHLWGYYLFPDCYNHHYKKPGYNGSCFNVEIKRNDDLSWLWNESTALYPSIYLNTQQSPVAATLYVRNRVREAIRVSKIPDAKSPLPVFAYTRIVFTDQVLKFLSQDELVYTFGETVALGASGIVIWGTLSIMRSMKSCLLLDNYMETILNPYIINVTLAAKMCSQVLCQEQGVCIRKNWNSSDYLHLNPDNFAIQLEKGGKFTVRGKPTLEDLEQFSEKFYCSCYSTLSCKEKADVKDTDAVD
modifications: HuPH20 precursor 1-456; Mature HuPH20 36-456
B2: SPAM1-DTDA: C-terminally truncated human PH20, precursor 454 aa (SEQ ID NO:41), mature 419 aa (SEQ ID NO:93) (protein, listed as Homo sapiens)
chain 1: MGVLKFKHIFFRSFVKSSGVSQIVFTFLLIPCCLTLNFRAPPVIPNVPFLWAWNAPSEFCLGKFDEPLDMSLFSFIGSPRINATGQGVTIFYVDRLGYYPYIDSITGVTVNGGIPQKISLQDHLDKAKKDITFYMPVDNLGMAVIDWEEWRPTWARNWKPKDVYKNRSIELVQQQNVQLSLTEATEKAKQEFEKAGKDFLVETIKLGKLLRPNHLWGYYLFPDCYNHHYKKPGYNGSCFNVEIKRNDDLSWLWNESTALYPSIYLNTQQSPVAATLYVRNRVREAIRVSKIPDAKSPLPVFAYTRIVFTDQVLKFLSQDELVYTFGETVALGASGIVIWGTLSIMRSMKSCLLLDNYMETILNPYIINVTLAAKMCSQVLCQEQGVCIRKNWNSSDYLHLNPDNFAIQLEKGGKFTVRGKPTLEDLEQFSEKFYCSCYSTLSCKEKADVKDTDA
chain 2: LNFRAPPVIPNVPFLWAWNAPSEFCLGKFDEPLDMSLFSFIGSPRINATGQGVTIFYVDRLGYYPYIDSITGVTVNGGIPQKISLQDHLDKAKKDITFYMPVDNLGMAVIDWEEWRPTWARNWKPKDVYKNRSIELVQQQNVQLSLTEATEKAKQEFEKAGKDFLVETIKLGKLLRPNHLWGYYLFPDCYNHHYKKPGYNGSCFNVEIKRNDDLSWLWNESTALYPSIYLNTQQSPVAATLYVRNRVREAIRVSKIPDAKSPLPVFAYTRIVFTDQVLKFLSQDELVYTFGETVALGASGIVIWGTLSIMRSMKSCLLLDNYMETILNPYIINVTLAAKMCSQVLCQEQGVCIRKNWNSSDYLHLNPDNFAIQLEKGGKFTVRGKPTLEDLEQFSEKFYCSCYSTLSCKEKADVKDTDA
modifications: HuPH20 precursor 1-454; Mature HuPH20 36-454

Test system: CHO-S cells
Assay: Western blot analysis of PH20 expression in media and cells after transient expression
Format: cell-based, Chinese Hamster
Details: band at approximately 66 kDa
Summary of the method: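 PH20 expression and solubility were judged by anti-PH20 Western blot of non-reduced media and cell fractions, with expression shown by a ~66 kDa band. Samples came from CHO-S cells transiently transfected (GeneJuice) with mutant PH20-HZ24 DNA and cultured 48-72 h. GPI-anchored mutants were cleaved with PI-PLC to release soluble protein.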

Molecule	Protein Expression
B1	YES
B2	YES
